From PubChem BioAssay AID1794845 (National Center for Advancing Translational Sciences (NCATS), 2023)
In all, about 6,900 compounds went through this assay and fewer than 10 were called active. Calls follow the shape of the dose curve; as a rule, active = well fitted curve in the direction sought with a large enough effect; inconclusive = small, poorly fitted or top-dose-only effect, or another doubt; inactive = no such curve, though single readings can be large or run the other way. This is one part of the list.

The chains behind the UniProt entries cited, without tags or fusion partners. Where a name states a change or a piece, a line headed by the entry shows the natural chain unless it says otherwise.
UniProt C7C422: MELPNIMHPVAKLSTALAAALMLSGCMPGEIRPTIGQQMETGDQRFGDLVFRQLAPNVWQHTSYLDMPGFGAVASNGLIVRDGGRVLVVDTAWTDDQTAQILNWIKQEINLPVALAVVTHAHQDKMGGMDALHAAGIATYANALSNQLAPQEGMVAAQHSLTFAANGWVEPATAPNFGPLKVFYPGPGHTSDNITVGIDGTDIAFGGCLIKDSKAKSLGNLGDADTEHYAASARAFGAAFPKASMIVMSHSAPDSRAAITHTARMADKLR

These compounds were tested against Metallo-beta-lactamase type 2 (Klebsiella pneumoniae) (UniProt C7C422) (assay: qHTS to identify inhibitors of the New Delhi Metallo-beta-lactamase (NDM): primary screen against the NCATS Gemini Collection). Conditions: NDM-1 enzyme, meropenem hydrolysis, absorbance 300 nm; at 38.4 µM (top of the series) unless noted.
Outline: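 NDM-1 at 2 nM final in 50 mM HEPES pH 7.0, 1 uM ZnSO4, 0.01% Tween20, preincubated >30 min with compound. Meropenem 50 uM final added; absorbance at 300 nm after 30 min.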
Also: % of control where 0% means no effect.

| Compound | activity % (negative = inhibition) |
| --- | --- |
| COc1ccc(OC2CCN(C(C)=O)CC2)c(C(=O)N2C[C@@H]3CCC[C@H]2C3)c1 | inactive: 16.9% |
| C=CCSC(C)C(=O)N1CCCn2nc(C(=O)OC)cc2C1 (configuration not stated) | inactive: 8.03% |
| O=C(Cn1cccn1)N1C[C@@H](COCC2CC2)[C@H](c2ccccn2)C1 | inactive: 27.3% |
| C[C@@H](NS(C)(=O)=O)c1onc(-c2cccnc2)c1C(=O)O | inactive: 3.38% [at 57.5 µM] |
| CCNC(=O)N[C@H]1[C@H](O)[C@@H](N2CCN(c3ccccc3OC)CC2)[C@@H]2OC[C@H]1O2 | inactive: 0.219% [at 57.5 µM] |
| O=C(c1ccncc1)N1CCCC(CN2CCCC2)CC1 (configuration not stated) | inactive: -0.451% |
| CC1CCN(Cc2nnnn2CCCC(=O)N2CCN(CCO)CC2)CC1 | inactive: -2% |
| CN(Cc1ccccc1)C(=O)[C@H]1C[C@@H](O)[C@H](O)[C@@H]2N=C(Nc3ccc(-n4cccn4)cc3)S[C@@H]21 | inactive: 132% |
| CN1CCC2(C1)CN(Cc1ccccc1)c1ccc(C(=O)N3CCOCC3)cc12 (configuration not stated) | inactive: 15.9% [at 57.5 µM] |
| C=CCNC(=O)N[C@H]1CCN(C(=O)CC(C)(C)C)[C@@H]1C(=O)N[C@@H](Cc1cccs1)C(N)=O | inactive: 11.3% |
| COc1cccc(CN2CC(C(=O)NCc3n[nH]c(=O)[nH]3)CCC2=O)c1 (configuration not stated) | inactive: 15.2% |
| CCc1nc(NC(=O)Cn2nc3c(cc2=O)CCCC3)sc1C | inactive: 15.8% |
| CC(=O)NC1(C)CCN(Cc2cnc(-c3cccc(F)c3)s2)CC1 | inactive: 16% [at 57.5 µM] |
| Cc1nc(N(C)C)ncc1C(=O)N1CCN(c2ccccc2C#N)CC1 | inactive: 4.49% |
| O=C(Cc1ccccc1)NCc1nnc2n1C(C(=O)O)CC2 (configuration not stated) | inactive: 26.1% |
| NC(=O)[C@H]1C[C@@H](O)[C@H](O)[C@H]2[C@@H]1SC(=Nc1ccc(Cl)cc1)N2Cc1ccc(F)cc1 | inactive: 10.3% |
| COc1ccc(C(=O)N2CCCC3(CN[S+](=O)([O-])c4ccccc4N3)C2)cc1 (configuration not stated) | inactive: 0.251% |
| C[C@@H]1CN(C(=O)c2ccc(Cn3cnnn3)cc2)C[C@@]1(O)C1CCC1 | inactive: -9.81% |
| C[S+](=O)([O-])c1ccc(-c2cc(C(=O)N3CCOCC3)nn3cccc23)cc1 | inactive: -5.63% |
| N#Cc1cc2c(=O)n(CCCCN3CCCC3)ccc2[nH]c1=O | inactive: 22.3% |
| Cc1noc(-c2ccc(OC3CN(S(=O)(=O)c4c(C)noc4C)C3)cc2)n1 | inactive: -0.18% |

| Compound | activity % (negative = inhibition) |
| --- | --- |
| CCN1CCN(CCN2CC3(CCN(C4CCOCC4)CC3)OC2=O)CC1 | inactive: 2.65% |
| COc1ccc(CC(=O)NC2CCN(C(=O)c3ccc(-c4cccs4)cc3)CC2)cc1 | inactive: 21.6% |
| O=C(c1ccccc1)N1CCCC2(CC(c3cccc(C(F)(F)F)c3)=NO2)C1 (configuration not stated) | inactive: -8.77% |
| O=C(c1ccc(C2CCCNC2)cc1)N1CCCN(c2ccc(F)cc2)CC1 (configuration not stated) | inactive: 12.1% |
| CN(CCc1nc2ccc(Cl)cc2[nH]1)c1cc(C2CC(O)C2)nc(N)n1 (configuration not stated) | inactive: 3.01% |
| Cc1ccc(N(CC(=O)N[C@H]2C[C@@H]3OCC[C@H]23)S(C)(=O)=O)cc1 | inactive: -2.04% |
| Cc1noc(-c2cccn3c(CNC(=O)Cc4cccc(F)c4)nnc23)n1 | inactive: -0.833% |
| CS(=O)(=O)c1ccc(CN2CCC(C(O)c3ccccn3)CC2)cc1 (configuration not stated) | inactive: 3.72% |
| O=C(Nc1ccc(Cl)cc1)c1nc2c(o1)CCN(Cc1ccncc1)CC2 | inactive: 22.1% [at 57.5 µM] |
| Fc1ccc(-c2noc(-c3ncn4c3COC(c3ccccc3Cl)C4)n2)cc1 (configuration not stated) | inactive: 41.7% |
| OC(c1ccccc1)c1nc(Nc2ccc3c(c2)OCO3)n[nH]1 (configuration not stated) | inactive: 8.43% [at 57.5 µM] |
| COc1ccccc1N1CCN(C(=O)Cn2c(C)cc3nc4n(c(=O)c32)CCCCC4)CC1 | inactive: 0.44% |
| CCCn1nc2c(c1C)C(c1ccc(OCC(N)=O)c(Cl)c1)CC(=O)N2 (configuration not stated) | inactive: -8.49% |
| Cc1cnc(C(=O)N[C@@H]2CCC[C@@H]2C(=O)N2CCC(N3CCCCC3)CC2)cn1 | inactive: 40.6% |
| Cc1cc(F)ccc1NC(=O)CCC1CCCN(C(=O)c2ccc(Cl)s2)C1 (configuration not stated) | inactive: -1.32% |
| O=C(NCC1CC1)c1nc2c(o1)CCN(CCCc1ccccc1)CC2 | inactive: 33.5% [at 57.5 µM] |
| O=c1cc(-c2cccnc2)oc2c(NCCc3ccccn3)nccc12 | inactive: -2.65% [at 57.5 µM] |
| CC(C)n1cc(C(=O)N2CCCC(c3nnc(Cn4ccnc4)n3C)C2)cn1 (configuration not stated) | inactive: 24.9% |
| CCN(CC)CC(=O)N1CCC(Oc2ccccc2C)(C(=O)O)CC1 | inactive: 1.04% |
| CCOCC(=O)N1C[C@@H](CO)[C@H](c2ccccn2)C1 | inactive: 7.16% |
| Cc1cc(C)n(Cc2ccc(C(=O)N3CCC(N4C[C@H](O)C[C@H]4C(=O)NC4CCCCC4)CC3)o2)n1 | inactive: -9.21% |

2 records drawn at random from the list so far, as already listed:

| Compound | activity % (negative = inhibition) |
| --- | --- |
| NC(=O)[C@H]1C[C@@H](O)[C@H](O)[C@H]2[C@@H]1SC(=Nc1ccc(Cl)cc1)N2Cc1ccc(F)cc1 | inactive: 10.3% |
| CC1CCN(Cc2nnnn2CCCC(=O)N2CCN(CCO)CC2)CC1 | inactive: -2% |
